# Laboratory results taken from patent US9562899B2, “Method of detecting OXA-048 carbapenemase producing bacteria” (BIOMÉRIEUX, priority 2012, dated 2017).
# Test system: strains producing an OXA-48 carbapenemase
# Test: Detection of strains producing an OXA-48 carbapenemase (Example 1)
# Format: cell-based, Enterobacteriaceae
# Details: temocillin concentration of 200 mg/l
smiles,measurement,value
CO[C@@]1(NC(=O)C(C(=O)O)c2ccsc2)C(=O)N2[C@@H](C(=O)O)C(C)(C)S[C@@H]21 (some centres unmarked) [temocillin],Sensitivity,93.8%
same,Specificity,92.8%
